# The list shows a part of the results. Small differences around the control level are noise.
# The chains behind the UniProt entries cited, without tags or fusion partners. Where a name states a change or a piece, a line headed by the entry shows the natural chain unless it says otherwise.
# UniProt Q86UL8: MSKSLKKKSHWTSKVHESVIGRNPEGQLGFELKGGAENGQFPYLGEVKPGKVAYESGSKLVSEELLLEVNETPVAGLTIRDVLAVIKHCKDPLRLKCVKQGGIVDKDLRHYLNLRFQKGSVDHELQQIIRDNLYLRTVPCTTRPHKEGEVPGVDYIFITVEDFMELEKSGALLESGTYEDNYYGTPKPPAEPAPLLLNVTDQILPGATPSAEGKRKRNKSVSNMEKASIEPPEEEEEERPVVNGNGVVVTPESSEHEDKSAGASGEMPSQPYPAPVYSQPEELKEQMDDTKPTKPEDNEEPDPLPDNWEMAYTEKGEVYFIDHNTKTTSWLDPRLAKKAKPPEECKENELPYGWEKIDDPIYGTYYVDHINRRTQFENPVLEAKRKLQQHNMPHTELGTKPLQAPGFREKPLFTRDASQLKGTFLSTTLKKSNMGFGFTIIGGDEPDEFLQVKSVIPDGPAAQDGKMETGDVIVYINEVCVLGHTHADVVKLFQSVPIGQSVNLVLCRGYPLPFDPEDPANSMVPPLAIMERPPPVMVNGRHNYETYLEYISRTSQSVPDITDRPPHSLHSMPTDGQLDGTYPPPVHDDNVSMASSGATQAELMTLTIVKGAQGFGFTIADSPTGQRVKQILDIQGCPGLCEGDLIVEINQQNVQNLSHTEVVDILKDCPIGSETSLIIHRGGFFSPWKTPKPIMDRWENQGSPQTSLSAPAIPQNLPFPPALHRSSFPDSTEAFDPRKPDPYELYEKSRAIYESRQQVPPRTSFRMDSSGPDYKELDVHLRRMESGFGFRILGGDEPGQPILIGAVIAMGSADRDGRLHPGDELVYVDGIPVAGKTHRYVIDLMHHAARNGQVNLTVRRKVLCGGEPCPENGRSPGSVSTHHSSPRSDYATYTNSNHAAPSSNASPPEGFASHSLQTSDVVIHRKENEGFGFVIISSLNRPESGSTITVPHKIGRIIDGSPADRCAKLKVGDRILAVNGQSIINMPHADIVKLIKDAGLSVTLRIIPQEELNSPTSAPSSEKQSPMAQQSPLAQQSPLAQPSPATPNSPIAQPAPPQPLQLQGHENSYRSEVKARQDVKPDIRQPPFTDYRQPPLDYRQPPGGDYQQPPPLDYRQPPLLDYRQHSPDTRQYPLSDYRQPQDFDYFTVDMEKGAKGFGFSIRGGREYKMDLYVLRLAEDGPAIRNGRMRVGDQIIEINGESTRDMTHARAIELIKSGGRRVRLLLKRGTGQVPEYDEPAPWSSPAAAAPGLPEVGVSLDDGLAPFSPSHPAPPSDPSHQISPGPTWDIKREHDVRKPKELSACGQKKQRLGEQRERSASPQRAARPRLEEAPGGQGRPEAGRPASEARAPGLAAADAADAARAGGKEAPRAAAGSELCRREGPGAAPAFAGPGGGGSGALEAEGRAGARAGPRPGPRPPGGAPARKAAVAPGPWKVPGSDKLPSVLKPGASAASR
# UniProt Q86UV5: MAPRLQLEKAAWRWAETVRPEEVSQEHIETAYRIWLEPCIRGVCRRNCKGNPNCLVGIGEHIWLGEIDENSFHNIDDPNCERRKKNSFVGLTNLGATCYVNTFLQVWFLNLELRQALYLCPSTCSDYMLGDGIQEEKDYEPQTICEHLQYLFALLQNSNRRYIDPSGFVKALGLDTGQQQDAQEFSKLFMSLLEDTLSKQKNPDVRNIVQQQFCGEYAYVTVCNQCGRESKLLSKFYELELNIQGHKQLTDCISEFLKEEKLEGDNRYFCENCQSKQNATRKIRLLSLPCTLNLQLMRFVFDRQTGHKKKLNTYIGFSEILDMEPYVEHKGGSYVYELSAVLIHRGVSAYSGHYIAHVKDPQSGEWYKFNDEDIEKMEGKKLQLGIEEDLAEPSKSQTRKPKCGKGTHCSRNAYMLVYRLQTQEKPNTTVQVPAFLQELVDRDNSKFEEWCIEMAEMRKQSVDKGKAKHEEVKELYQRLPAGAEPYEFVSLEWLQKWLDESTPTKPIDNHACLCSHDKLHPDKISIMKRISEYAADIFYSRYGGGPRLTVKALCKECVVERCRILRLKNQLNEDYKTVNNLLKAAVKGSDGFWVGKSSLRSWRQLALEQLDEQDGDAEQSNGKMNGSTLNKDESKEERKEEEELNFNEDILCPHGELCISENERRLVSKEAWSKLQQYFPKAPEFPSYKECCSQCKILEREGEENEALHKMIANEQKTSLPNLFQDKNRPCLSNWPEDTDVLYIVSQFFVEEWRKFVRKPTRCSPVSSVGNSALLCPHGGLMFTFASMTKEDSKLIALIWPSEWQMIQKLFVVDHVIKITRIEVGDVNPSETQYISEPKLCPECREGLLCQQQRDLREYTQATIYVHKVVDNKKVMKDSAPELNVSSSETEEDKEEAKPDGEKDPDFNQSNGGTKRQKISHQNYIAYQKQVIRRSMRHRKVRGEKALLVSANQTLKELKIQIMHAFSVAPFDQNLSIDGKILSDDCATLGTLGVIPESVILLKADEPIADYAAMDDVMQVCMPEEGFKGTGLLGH
# UniProt Q7L2H7, whole entry: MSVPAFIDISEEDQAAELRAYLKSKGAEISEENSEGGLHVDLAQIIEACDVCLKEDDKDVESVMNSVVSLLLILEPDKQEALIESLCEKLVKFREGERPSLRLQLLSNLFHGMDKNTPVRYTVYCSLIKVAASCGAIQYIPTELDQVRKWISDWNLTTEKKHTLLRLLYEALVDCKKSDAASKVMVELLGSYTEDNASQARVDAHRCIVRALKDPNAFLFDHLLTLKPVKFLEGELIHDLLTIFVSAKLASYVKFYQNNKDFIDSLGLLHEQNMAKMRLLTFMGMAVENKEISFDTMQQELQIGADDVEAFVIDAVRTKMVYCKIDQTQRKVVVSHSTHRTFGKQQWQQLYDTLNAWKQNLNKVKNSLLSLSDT
# UniProt Q7RTV0, whole entry, looked up: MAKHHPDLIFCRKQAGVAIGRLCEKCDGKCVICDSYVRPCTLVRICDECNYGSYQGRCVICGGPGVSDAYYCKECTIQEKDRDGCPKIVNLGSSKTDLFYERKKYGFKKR
# UniProt Q6ZV73: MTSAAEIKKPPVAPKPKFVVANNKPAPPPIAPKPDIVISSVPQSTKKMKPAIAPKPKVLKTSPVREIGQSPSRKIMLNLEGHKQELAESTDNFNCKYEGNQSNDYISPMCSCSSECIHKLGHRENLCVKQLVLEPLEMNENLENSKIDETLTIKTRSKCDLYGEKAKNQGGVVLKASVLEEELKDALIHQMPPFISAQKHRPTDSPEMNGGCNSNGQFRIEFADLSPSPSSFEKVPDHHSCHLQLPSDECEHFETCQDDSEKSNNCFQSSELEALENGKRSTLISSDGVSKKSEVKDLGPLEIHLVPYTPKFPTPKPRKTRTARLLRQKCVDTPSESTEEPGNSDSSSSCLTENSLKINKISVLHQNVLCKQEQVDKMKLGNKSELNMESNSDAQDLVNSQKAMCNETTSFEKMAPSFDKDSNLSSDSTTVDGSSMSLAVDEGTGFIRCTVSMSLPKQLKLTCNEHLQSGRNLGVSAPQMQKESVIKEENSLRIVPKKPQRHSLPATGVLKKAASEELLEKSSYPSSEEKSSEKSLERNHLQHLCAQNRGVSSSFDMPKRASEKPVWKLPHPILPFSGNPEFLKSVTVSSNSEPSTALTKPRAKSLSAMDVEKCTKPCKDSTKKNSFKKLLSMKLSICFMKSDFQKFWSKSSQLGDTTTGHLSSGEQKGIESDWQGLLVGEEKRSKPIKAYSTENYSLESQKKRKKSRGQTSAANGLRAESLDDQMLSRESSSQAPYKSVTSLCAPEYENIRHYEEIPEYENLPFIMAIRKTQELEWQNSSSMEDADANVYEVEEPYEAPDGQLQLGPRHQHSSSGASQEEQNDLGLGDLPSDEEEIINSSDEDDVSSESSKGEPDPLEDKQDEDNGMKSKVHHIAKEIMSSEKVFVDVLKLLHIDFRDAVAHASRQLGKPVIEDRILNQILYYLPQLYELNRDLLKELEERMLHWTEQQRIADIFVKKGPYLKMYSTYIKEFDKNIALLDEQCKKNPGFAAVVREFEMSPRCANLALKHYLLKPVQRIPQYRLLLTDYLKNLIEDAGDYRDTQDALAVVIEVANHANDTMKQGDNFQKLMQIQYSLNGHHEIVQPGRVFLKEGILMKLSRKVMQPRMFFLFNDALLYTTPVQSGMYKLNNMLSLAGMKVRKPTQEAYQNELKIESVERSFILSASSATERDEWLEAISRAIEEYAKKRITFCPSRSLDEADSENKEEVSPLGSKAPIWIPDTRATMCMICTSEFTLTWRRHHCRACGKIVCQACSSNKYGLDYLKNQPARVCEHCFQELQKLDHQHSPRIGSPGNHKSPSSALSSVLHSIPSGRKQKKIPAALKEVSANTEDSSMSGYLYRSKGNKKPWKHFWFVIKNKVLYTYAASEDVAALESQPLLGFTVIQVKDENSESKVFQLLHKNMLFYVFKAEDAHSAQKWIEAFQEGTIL
# UniProt Q6ZNB6: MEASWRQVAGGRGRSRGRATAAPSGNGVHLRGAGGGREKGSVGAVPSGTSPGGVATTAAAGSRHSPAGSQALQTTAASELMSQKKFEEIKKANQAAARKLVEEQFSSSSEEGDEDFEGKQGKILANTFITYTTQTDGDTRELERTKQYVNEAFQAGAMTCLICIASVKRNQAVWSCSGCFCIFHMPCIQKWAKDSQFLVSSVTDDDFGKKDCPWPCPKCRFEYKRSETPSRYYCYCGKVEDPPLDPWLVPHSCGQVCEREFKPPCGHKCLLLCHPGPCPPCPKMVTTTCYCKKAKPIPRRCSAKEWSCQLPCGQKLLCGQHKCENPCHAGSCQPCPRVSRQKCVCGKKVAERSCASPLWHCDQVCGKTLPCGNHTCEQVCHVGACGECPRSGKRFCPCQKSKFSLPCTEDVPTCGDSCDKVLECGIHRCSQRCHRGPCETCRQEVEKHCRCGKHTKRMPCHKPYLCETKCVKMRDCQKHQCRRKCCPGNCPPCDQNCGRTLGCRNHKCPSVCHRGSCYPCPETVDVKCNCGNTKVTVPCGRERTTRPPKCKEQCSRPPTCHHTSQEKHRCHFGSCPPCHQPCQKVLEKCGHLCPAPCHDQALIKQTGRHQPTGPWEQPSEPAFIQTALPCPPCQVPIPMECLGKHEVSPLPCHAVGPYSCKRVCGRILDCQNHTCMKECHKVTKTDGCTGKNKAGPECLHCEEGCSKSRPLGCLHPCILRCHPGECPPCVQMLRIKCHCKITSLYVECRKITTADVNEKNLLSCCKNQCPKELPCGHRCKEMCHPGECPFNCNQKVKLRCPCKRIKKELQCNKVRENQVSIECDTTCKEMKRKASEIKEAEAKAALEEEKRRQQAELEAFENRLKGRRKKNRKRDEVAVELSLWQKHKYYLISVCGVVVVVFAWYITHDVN
# UniProt Q86T82: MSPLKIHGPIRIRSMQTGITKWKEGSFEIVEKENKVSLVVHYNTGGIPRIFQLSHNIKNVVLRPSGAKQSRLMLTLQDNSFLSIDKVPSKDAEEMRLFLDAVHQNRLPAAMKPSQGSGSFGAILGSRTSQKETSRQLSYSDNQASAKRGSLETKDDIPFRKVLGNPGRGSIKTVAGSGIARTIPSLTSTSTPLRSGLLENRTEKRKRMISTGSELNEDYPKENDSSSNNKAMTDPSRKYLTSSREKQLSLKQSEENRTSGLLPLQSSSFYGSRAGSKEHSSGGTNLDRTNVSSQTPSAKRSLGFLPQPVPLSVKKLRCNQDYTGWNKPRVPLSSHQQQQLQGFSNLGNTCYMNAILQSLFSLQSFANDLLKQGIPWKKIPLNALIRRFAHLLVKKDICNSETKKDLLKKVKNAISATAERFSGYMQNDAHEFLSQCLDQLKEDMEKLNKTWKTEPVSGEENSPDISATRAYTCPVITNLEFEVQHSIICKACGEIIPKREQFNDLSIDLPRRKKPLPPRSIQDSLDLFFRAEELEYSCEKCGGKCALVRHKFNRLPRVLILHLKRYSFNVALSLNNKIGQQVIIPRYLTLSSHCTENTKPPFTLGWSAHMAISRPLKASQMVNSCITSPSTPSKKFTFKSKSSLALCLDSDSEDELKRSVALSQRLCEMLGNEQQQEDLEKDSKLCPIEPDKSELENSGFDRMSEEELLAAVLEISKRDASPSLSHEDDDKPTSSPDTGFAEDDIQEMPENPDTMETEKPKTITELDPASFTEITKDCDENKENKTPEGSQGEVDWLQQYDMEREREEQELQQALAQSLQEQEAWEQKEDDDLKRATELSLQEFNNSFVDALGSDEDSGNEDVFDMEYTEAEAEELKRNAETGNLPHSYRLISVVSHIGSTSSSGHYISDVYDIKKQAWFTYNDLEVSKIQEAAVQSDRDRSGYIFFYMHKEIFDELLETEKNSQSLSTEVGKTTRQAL
# UniProt Q7Z4H3: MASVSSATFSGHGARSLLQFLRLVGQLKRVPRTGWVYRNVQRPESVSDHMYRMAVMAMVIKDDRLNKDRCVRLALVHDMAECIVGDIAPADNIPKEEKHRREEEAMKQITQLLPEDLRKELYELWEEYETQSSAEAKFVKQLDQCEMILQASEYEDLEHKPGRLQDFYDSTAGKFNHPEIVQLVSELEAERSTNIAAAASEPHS
# Compound: CN[C@@H]1C[C@H]2O[C@@](C)([C@@H]1OC)n1c3ccccc3c3c4c(c5c6ccccc6n2c5c31)C(=O)NC4 [staurosporine]
# Test: log2 fold change of tryptic peptide abundance, ligand vs vehicle (limited proteolysis) (log2 ratio); higher = more trypsin-susceptible (destabilized)
# Conditions: ligand concentration: 20 uM; sample: K562 cleared lysate; digestion: 4 min, 22 C (HT-PELSA RT4min, Orbitrap Astral)
row,Target,log2 fold change
1,"MCM10 (peptide sequence: KKIQTTLSNLVVK, peptide start residue: 481) (UniProt Q7L590)",-1.34
2,"UniProt Q7L1Q6 (peptide sequence: GFEDEVKK, peptide start residue: 127)",0.344
3,"MIER3 (peptide sequence: VKEYLVETSLR, peptide start residue: 218) (UniProt Q7Z3K6)",-0.11
4,"UniProt Q7Z736 (peptide sequence: EGGGGAGTAAAVLGGWKR, peptide start residue: 619)",-0.48
5,"CMC1 (peptide sequence: CSEQVQDFTK, peptide start residue: 31) (UniProt Q7Z7K0)",0.461
6,"MBOAT2 (peptide sequence: KNTHENIQLSQSK, peptide start residue: 472) (UniProt Q6ZWT7)",0.865
7,"UniProt Q86UL8 (peptide sequence: TTSWLDPR, peptide start residue: 325)",0.0408
8,"USP48 (peptide sequence: LFMSLLEDTLSKQK, peptide start residue: 188) (UniProt Q86UV5)",-0.979
9,"UniProt Q7L2H7 (peptide sequence: WISDWNLTTEKK, peptide start residue: 150)",0.414
10,"UniProt Q7RTV0 (peptide sequence: TDLFYER, peptide start residue: 96)",-0.0749
11,"FGD6 (peptide sequence: SPSSALSSVLHSIPSGR, peptide start residue: 1299) (UniProt Q6ZV73)",0.541
12,"MICAL3 (peptide sequence: MQQMELASGAPRPR, peptide start residue: 1620) (UniProt Q7RTP6)",0.215
13,"DDX46 (peptide sequence: MIDMLAANSGR, peptide start residue: 506) (UniProt Q7L014)",0.167
14,"NFXL1 (peptide sequence: ATAAPSGNGVHLR, peptide start residue: 19) (UniProt Q6ZNB6)",0.249
15,"AKNA (peptide sequence: LGYEAGLSLEGHGNTSPMALGHGQAR, peptide start residue: 144) (UniProt Q7Z591)",-0.515
16,"PBRM1 (peptide sequence: IILEPMDLK, peptide start residue: 561) (UniProt Q86U86)",0.156
17,"YANK3 (peptide sequence: SQDLPREPLPAPESR, peptide start residue: 444) (UniProt Q86UX6)",-0.644
18,"UniProt Q86TB3 (peptide sequence: EGAGQRSGWGTR, peptide start residue: 1181)",-0.109
19,"USP37 (peptide sequence: TNVSSQTPSAK, peptide start residue: 289) (UniProt Q86T82)",-0.353
20,"UniProt Q7Z7K2 (peptide sequence: GFSHGQHLAR, peptide start residue: 439)",0.591
21,"RAI1 (peptide sequence: SCTAPTAQPHDRPLTASSSLAPGQR, peptide start residue: 238) (UniProt Q7Z5J4)",-0.215
22,"UniProt Q7Z3D6 (peptide sequence: HLVDPIDDLFLAAK, peptide start residue: 455)",-0.149
23,"HDDC2 (peptide sequence: MAVMAMVIKDDRLNK, peptide start residue: 53) (UniProt Q7Z4H3)",0.231
24,"RINL (peptide sequence: SGPLPGEVNTYQIQKIPR, peptide start residue: 87) (UniProt Q6ZS11)",0.458
25,"ZC3H18 (peptide sequence: RFTVTIGEDER, peptide start residue: 329) (UniProt Q86VM9)",-0.383
26,"MRPL10 (peptide sequence: EIAAVFQDNR, peptide start residue: 85) (UniProt Q7Z7H8)",0.368
27,"VPS13C (peptide sequence: QVSSIPIISGGTK, peptide start residue: 846) (UniProt Q709C8)",0.213
28,"FERMT3 (peptide sequence: LTQLYEQAR, peptide start residue: 268) (UniProt Q86UX7)",0.225

# From entry 20 as far as 24, as listed above:
row,Target,log2 fold change
20,"UniProt Q7Z7K2 (peptide sequence: GFSHGQHLAR, peptide start residue: 439)",0.591
21,"RAI1 (peptide sequence: SCTAPTAQPHDRPLTASSSLAPGQR, peptide start residue: 238) (UniProt Q7Z5J4)",-0.215
22,"UniProt Q7Z3D6 (peptide sequence: HLVDPIDDLFLAAK, peptide start residue: 455)",-0.149
23,"HDDC2 (peptide sequence: MAVMAMVIKDDRLNK, peptide start residue: 53) (UniProt Q7Z4H3)",0.231
24,"RINL (peptide sequence: SGPLPGEVNTYQIQKIPR, peptide start residue: 87) (UniProt Q6ZS11)",0.458
